{"source": "PubChem BioAssay AID540256", "about": "(National Center for Advancing Translational Sciences (NCATS), 2011)", "note": "The whole screen tested about 300,000 compounds, of which about 3,700 (1.2%) were called active. Inconclusive means that the source gave no clear call. Such entries were picked first, then a sample of the others. The call rests on the fitted dose curve; tested in HEK293 cells. Potencies of inconclusive entries are doubtful fits and often do not repeat. On the % scale 0 is the no-effect control and ±100 the full control effect; potency means the concentration at half of the fitted maximal effect."}
{"assay": "qHTS for Inhibitors of binding or entry into cells for Lassa Virus; further: nearly all actives have a fitted effect of over 50% in size", "conditions": "Lassa virus pseudotype entry inhibition, cell reporter; activity change, negative = inhibition: at 37.9 µM (top of the series) unless noted"}
{"smiles": "CCCCn1c(N)c(N(CC(C)C)C(=O)c2oc3ccc(OCC)cc3c2C)c(=O)[nH]c1=O", "Potency": "inconclusive: 11.2 µM [inhibitor, partial curve, poor fit]"}
{"smiles": "CCOC(=O)C1CCCN(S(=O)(=O)CCNC(=O)c2cccc(OC)c2)C1", "note": "(stereo not given)", "Potency": "inconclusive: 10 µM [inhibitor, partial curve, poor fit]"}
{"smiles": "CCOc1ccc(-c2ncncc2-c2ccccc2OC)c(O)c1", "Potency": "inactive"}
{"smiles": "COc1cc2c(C(=O)N3CCOCC3)c(CSc3ccccc3)n(C)c2cc1Br", "Potency": "inconclusive: 29.1 µM [inhibitor, single point]"}
{"smiles": "O=C(NC12CC3CC(CC(C3)C1)C2)c1ccc(COc2ccc(Cl)cc2[N+](=O)[O-])o1", "Potency": "inconclusive: 20 µM [inhibitor, single point]"}
{"smiles": "CC(=O)Nc1ccccc1C(=O)OCC(=O)c1cccc2ccccc12", "Potency": "inconclusive: 20.6 µM [activator, single point]"}
{"smiles": "CCS(=O)(=O)N1CCC2(CC1)OC(=O)C(C)=C2C(=O)NCc1ccccc1C", "Potency": "inconclusive: 35.5 µM [activator, single point]"}
{"smiles": "CC(=C/c1ccc(C(C)C)cc1)/C=N/NC(=O)CSc1ccccn1", "Potency": "inactive"}
{"smiles": "CCOc1ccc(C(=O)Nc2ccc(NC(=O)c3ccco3)c(Cl)c2)cc1Cl", "Potency": "inconclusive: 11.2 µM [inhibitor, partial curve]"}
{"smiles": "Cc1cc(-c2ccc(S(=O)(=O)NCc3ccccc3Cl)s2)on1", "Potency": "inactive"}
{"smiles": "Cc1ccc(-c2csc(CC(N)=O)n2)cc1", "Potency": "inactive"}
{"smiles": "Oc1ccccc1/C=N/NC(=S)NC1CC2CCC1C2", "note": "(stereo not given)", "Potency": "inconclusive: 0.355 µM [activator, single point]"}
{"smiles": "COc1ccc(NC(=O)Nc2cc(C)ccc2F)cc1OC", "Potency": "inconclusive: 3.16 µM [activator, partial curve, poor fit]"}
{"smiles": "Cc1nnc(SCC(=O)Nc2ccccc2NC(=O)CSc2nnc(C)s2)s1", "Potency": "inactive"}
{"smiles": "CN=c1scc(-c2ccccc2F)n1/N=C(\\C)c1cccnc1", "Potency": "inconclusive: 11.2 µM [inhibitor, partial curve, poor fit]"}
{"smiles": "Cc1cc(NC(=O)c2ccco2)c(=O)n(Cc2c(F)cccc2Cl)c1", "Potency": "inconclusive: 22.4 µM [inhibitor, single point]"}
{"smiles": "NCCc1nc2ccccc2s1", "Potency": "inactive"}
{"smiles": "O=C(C[n+]1ccc(C(=O)N/N=C/c2ccc(Cl)cc2Cl)cc1)c1ccccc1", "Potency": "inactive"}
{"smiles": "CCOc1ccc(NC(=O)CN2CCN(C3CCCCC3)C(=O)C2=O)cc1", "Potency": "inconclusive: 11.2 µM [activator, single point]"}
{"smiles": "CCCC1OC23CCCCC2C(C#N)(C(=N)O3)C1(C#N)C#N", "note": "(stereo not given)", "Potency": "inactive"}
{"smiles": "Cc1cc(C)n2cc(CSc3ncn[nH]3)nc2n1", "Potency": "inactive"}
{"smiles": "CCCc1cc(Nc2ccccc2C)n2ncnc2n1", "Potency": "inconclusive: 1.26 µM [inhibitor, partial curve, poor fit]"}
{"smiles": "CC(C)[C@H](NS(=O)(=O)c1ccccc1)C(=O)OCC(=O)Nc1ccccc1Sc1ccccc1", "Potency": "inconclusive: 12.6 µM [inhibitor, single point]"}
{"smiles": "CC(=S)c1c(C)cc2cc(C)ccn12", "Potency": "inconclusive: 3.16 µM [inhibitor, partial curve, poor fit]"}
{"smiles": "CC1NC(=O)NC1CCCCCC(=O)NCCc1ccccc1", "note": "(stereo not given)", "Potency": "inconclusive: 18.3 µM [inhibitor, single point]"}
{"smiles": "Cc1cc(C)nc(Nc2ncc(O)n2-c2ccc(C)c(Cl)c2)n1", "Potency": "inactive"}
{"smiles": "COC(=O)c1nnn(CC(=O)NC(=O)Nc2ccccc2F)c1C(=O)OC", "Potency": "inconclusive: 7.08 µM [activator, partial curve, poor fit]"}
{"smiles": "Cc1ccc(NC(=O)Nc2ncccc2C)cc1", "Potency": "inconclusive: 3.26 µM [activator, partial curve, poor fit]"}
{"smiles": "COCc1c(Br)c(C)nc(OCC(=O)N/N=C/c2cc(C)n(-c3ccc([N+](=O)[O-])cc3)c2C)c1C#N", "Potency": "inconclusive: 7.3 µM [inhibitor, full curve, poor fit]"}
{"smiles": "CC(C)CCNC(=O)c1cc2c(=O)n3ccccc3nc2s1", "Potency": "inconclusive: 3.98 µM [inhibitor, full curve, poor fit]"}
{"smiles": "COc1ccc(N(CC(=O)Nc2ccc3c(c2)OCCO3)S(=O)(=O)c2cccc(C)c2)cc1", "Potency": "inconclusive: 14.1 µM [inhibitor, partial curve, poor fit]"}
{"smiles": "CC(=O)c1cccc(Nc2nc(-c3ccccc3)cs2)c1", "Potency": "inconclusive: 0.398 µM [activator, partial curve, poor fit]"}
{"smiles": "Cc1cccc(-c2noc(-c3ccccc3C(=O)NCC3CCCO3)n2)c1", "note": "(stereo not given)", "Potency": "inactive"}
{"smiles": "c1ccc2c(c1)NCC1CCCN21", "note": "(stereo not given)", "Potency": "inconclusive: 31.6 µM [activator, partial curve, poor fit]"}
{"smiles": "O=C(Cc1ccsc1)Nc1ccc(S(=O)(=O)C(F)F)cc1", "activity change, negative = inhibition": "inconclusive: 9.35% [activator]"}
{"smiles": "C=CCN1C(=O)N(Cc2ccccc2)c2ccccc2S1(=O)=O", "Potency": "inactive"}
{"smiles": "CC(C)CC(=O)NC(=S)Nc1ccc(NC(=O)c2ccco2)cc1", "Potency": "inactive"}
{"smiles": "COC(=O)c1c(NC(=O)CSc2nc3ccccc3c(=O)n2-c2ccccc2)sc(C)c1C", "Potency": "inactive"}
{"smiles": "Cc1cc(N2C(=O)c3ccc(C(=O)Nc4ccc(CC(=O)O)cc4)cc3C2=O)no1", "Potency": "inactive"}
{"smiles": "O=[N+]([O-])c1ccc(Sc2ncccn2)c([N+](=O)[O-])c1", "Potency": "inconclusive: 28.2 µM [inhibitor, single point]"}
{"smiles": "C/C(=N\\NC(=O)CNC(=O)c1ccc2c(c1)OCCO2)c1ccco1", "Potency": "inconclusive: 15.8 µM [activator, single point]"}
{"smiles": "CN1N=C(C(=O)N2CCc3c([nH]c4ccccc34)C2c2c(F)cccc2Cl)CCC1=O", "note": "(stereo not given)", "Potency": "inconclusive: 3.55 µM [inhibitor, single point]"}
{"smiles": "Cc1ccc(C(=O)N2CC(C)SC2=Nc2cccc(S(=O)(=O)N(C)C)c2)cc1", "note": "(stereo not given)", "Potency": "active: 3.16 µM"}
{"smiles": "O=C(NCCC1CCCCN1S(=O)(=O)c1cccs1)C(=O)Nc1ccccc1", "note": "(stereo not given)", "Potency": "inconclusive: 11.2 µM [inhibitor, partial curve, poor fit]"}
{"smiles": "OC(COc1ccc(F)cc1)CN1CCN(CC(O)COc2ccc(F)cc2)CC1", "note": "(stereo not given)", "Potency": "inactive"}
